Laboratory results taken from PMC9767416, “Discovery of small molecule mechanistic target of rapamycin inhibitors as anti-aging and anti-cancer therapeutics” (Frontiers in Aging Neuroscience, 2022).

Experiments:
IR-RPE-1 senescent cells = assay: Time-lapse microscopy of IR-senescent RPE-1; format: cell-based, human
Method: (§1) To obtain ionizing radiation (IR)-induced senescent cells, proliferating RPE-1 cells were exposed to a single dose of X-rays (20 Gy) using Pantak HF160 (Gulmay, Surrey, UK) X-ray instrument equipped with Pantak Seifert HF320 generator, MXR-161 X-ray tube (Comet AG, Flamatt, Switzerland), and an aluminum filter using current 1–10 mA. After irradiation, the cells were cultured for an additional 7 days until the development of the senescent phenotype ([Salovska et al., 2022]). To induce docetaxel-induced senescence (DIS), BJ cells were exposed to 5 nM docetaxel for 7 days, as described previously ([Sapega et al., 2018]). To prepare temozolomide (TMZ)-induced senescence, U87 cells were exposed to 100 μM TMZ for 14 days.
(§2) For auto-monitoring of cells, Incucyte SX1 Live-Cell Analysis System (Sartorius, Göttingen, Germany), located in an incubator maintained at 37°C under a 5% CO2 atmosphere and 95% humidity, was utilized. The images (1,408 × 1,040 pixels at 1.24 microns/pixel) were acquired using a 10× objective lens in phase contrast, red fluorescence (excitation: 585 ± 20 nm, emission: 635 [625, 705] nm, acquisition time: 100 ms) channels every 60 min during 72 h. The first image was acquired 30 min after adding compounds. The images were processed to measure cell confluence using Incucyte software (version 2022A). […]

TMZ-U87 cells = assay: Time-lapse microscopy with annexin V of TMZ-induced senescent U87; format: cell-based, human; conditions: 0–100 μM, 72 h
Method: as §1, §2

C57BL/6 (B6) male mice [1] = assay: In vivo tolerability study (behaviour, signs of toxicity, body weight); conditions: p.o. 5, 25 and 50 mg/kg body weight, days 0, 3, 5
Method: C57BL/6 (B6) male mice, 8–12 weeks old, were obtained from the Institute of Molecular Genetics, Prague, Czech Republic. Experimental protocols were approved by the Institutional Animal Care Committee of the Institute of Molecular Genetics, Prague.
Compounds were dissolved in 20 μL DMSO and completed into 200 μL with corn oil.
During the experiments, mice behavior and possible apparent signs of toxicity were monitored daily. The body weights were determined on days 0, 4, and 8. On day 8, blood (25 μL) was withdrawn using a capillary pipette containing anticoagulant (heparin) from the retroorbital sinus into EDTA-containing tubes. Basic hematological parameters were measured using the Mindray BC-5300 Vet. Mice were then killed, autopsied, and abdominal organs (spleen, liver, and kidney) were removed for visual examination and imaging by a digital camera. Single-cell suspensions from the spleens were prepared by homogenization through a cell strainer (70 μm; BD Biosciences, San Jose, CA, USA). Erythrocytes were osmotically lysed using ammonium chloride-potassium lysis buffer, and the cell suspensions were washed three times in the RPMI-1640 medium and used for further analysis by flow cytometry for selected cell populations.

C57BL/6 (B6) male mice [2] = assay: Histopathological analysis of spleen, kidney and liver; format: in vivo
Method: Spleen, kidney, and liver tissue samples from the control and treated animals were fixed in 4% formaldehyde and embedded into paraffin. The analysis and evaluation were performed at the Czech Centre for Phenogenomics, Institute of Molecular Genetics of the CAS, Vestec, using Leica ASP6025 automatic vacuum tissue processor for tissue processing, Leica EG1150 H + C embedding station for embedding, and Leica RM2255 rotary microtome for sectioning (2 μm sections). Standard haematoxylin and eosin (HE) descriptive histopathological staining was done using Leica ST5020 + CV5030 stainer and coverslipped.

## CC(C)n1nc(-c2cc3cc(O)ccc3[nH]2)c2c(N)ncnc21 [Torkinib, torkinib]
IR-RPE-1 senescent cells
  kind of effect on senescent cells: rather senomorphic than senolytic effect
  senescent cell phenotype in time-lapse microscopy: rapid onset of vacuolization (after approximately 1 h of exposure) with partial loss of adhesion
TMZ-U87 cells
  cell phenotype in time-lapse microscopy, annexin V staining: same effect
C57BL/6 (B6) male mice [1]
  changes in mice behavior and body weights: no changes
C57BL/6 (B6) male mice [2]; mice, 5 mg/kg p.o., HE, 200×
  histopathology, kidneys: focal interstitial fibrosis (arrow), mild tubular damage, hyaline droplets
C57BL/6 (B6) male mice [2]; mice, 5, 25, 50 mg/kg p.o., proportional to dose
  histopathology, kidneys: signs of fibrosis
C57BL/6 (B6) male mice [2]; mice, 5, 25, 50 mg/kg p.o., with the exception of the spleen
  pathological changes compared to compound 3-treated mice: more pronounced
